For 21 targets, log2 fold change results are on record in the supplement of paper PMC10849652.

Some of the results follow.

Compound in the experiment: c1ccc([C@@H]2C[C@H]2NC2CCNCC2)cc1
Briefly: log2 fold change, soluble protein after heating vs DMSO (PISA); higher = thermal stabilisation; K562 lysate, 10 uM; active = over 0.2 and 3.5 SD of the protein, either way, in both replicates (recomputed). The method in brief:
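K562 pellets were dounce-homogenised in PBS pH 7.4 with 1 mM MgCl2, and the crude extract at 1 mg/mL protein was treated with 10 μM compound for 30 min. Aliquots were heated for 3 min across 48°C-58°C, pooled, and brought to 0.5% NP-40 at 4°C; soluble protein was the supernatant after 21,000xg for 90 min. Soluble protein was quantified by TMTpro 16plex LC-MS/MS with channel sums equalised, and reported as log2 fold change in thermal stability against DMSO controls, with values from duplicates.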
For VEGFA isoform 14 (UniProt P15692), the log2 fold change is inactive: -0.132. USP36 (UniProt Q9P275): the log2 fold change was inactive: 0.066. With VANGL2 (UniProt Q9ULK5), the log2 fold change was inactive: -0.093. On to UPF3A (UniProt Q9H1J1), for which the log2 fold change is inactive: 0.034.

Turning to USB1 (UniProt Q9BQ65), the log2 fold change is inactive: 0.123. The result for USP33 (UniProt Q8TEY7) reads inactive: -0.219; that for UTP23 (UniProt Q9BRU9), inactive: 0.14; that for UMAD1 (UniProt C9J7I0), inactive: 0.064.

Regarding VEGFA (UniProt H0YBI8), the log2 fold change was inactive: -0.183.

With URI1 isoform 4 (UniProt O94763), the log2 fold change is inactive: -0.089.

As to USP6NL isoform 2 (UniProt Q92738), the log2 fold change was inactive: -0.045. The result for UTRN isoform 2 (UniProt P46939) reads inactive: 0.062; that for UQCR10 (UniProt Q9UDW1), inactive: -0.053; that for UNC13A (UniProt Q9UPW8), inactive: -0.966. Turning to USP30 (UniProt Q70CQ3), the log2 fold change is inactive: 0.116. On to VGLL4 isoform 4 (UniProt Q14135), for which the log2 fold change was inactive: 0.036.

VCX3B (UniProt Q9H321): the log2 fold change is inactive: -0.059. As to URB2 (UniProt Q14146), the log2 fold change was inactive: -0.017. In the case of ULK1 (UniProt O75385), the log2 fold change is inactive: 0.035. With URB1 (UniProt O60287), the log2 fold change is inactive: 0.741. With USP12 (UniProt O75317), the log2 fold change was inactive: -0.151.
